Laboratory results: PubChem BioAssay AID1508597 (Cure First, 2020)
In all, the deposit lists about 2,100 reagents; shown is a random part of them. 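Calls flag viability under 80% in either arm, not effects specific to rucaparib; the reference for percent is not stated.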 Not stated in the record: the 100% reference.

Screen: 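Survival screen with siRNA in ovarian cancer cells derived from patients, with or without rucaparib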 (primary screen)
Cells: human ovarian carcinoma lines grown from tumours: OCI-P5x (papillary serous) and OCI-C5x (clear cell)
Knock-down reagent: siRNA pool against human genes, 1.25 pmol siRNA per well
Duration: 72 h or 96 h, depending on the cell culture
Conditions: rucaparib 20 µM (about IC30) or vehicle, present until read-out
Measured: 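ATP luminescence measured at 72 or 96 h according to the culture, then normalised and expressed as percent viability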
Direction: viability, normalised: higher = more viable cells remaining
Hit rule: 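Active when normalised viability falls below 80 percent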
Calls: active = viability under 80%; inactive = viability 80% or more

viability, normalised (%)	activity call	Gene	rucaparib or vehicle	cell line	technical replicate
65.9	active	CBX8	Rucaparib	OCI-C5x (clear cell)	1
65.6	active	CBX8	Rucaparib	OCI-C5x (clear cell)	2
49.8	active	CBX8	Rucaparib	OCI-C5x (clear cell)	3
69.5	active	CBX8	Rucaparib	OCI-P5x (serous)	1
64.3	active	CBX8	Rucaparib	OCI-P5x (serous)	2
66.4	active	CBX8	Rucaparib	OCI-P5x (serous)	3
51.2	active	CBX8	Vehicle	OCI-C5x (clear cell)	1
48.5	active	CBX8	Vehicle	OCI-C5x (clear cell)	2
41.4	active	CBX8	Vehicle	OCI-C5x (clear cell)	3
81.5	inactive	CBX8	Vehicle	OCI-P5x (serous)	1
86.8	inactive	CBX8	Vehicle	OCI-P5x (serous)	2
74.3	active	CBX8	Vehicle	OCI-P5x (serous)	3
39.4	active	CLDN17	Rucaparib	OCI-C5x (clear cell)	1
46.5	active	CLDN17	Rucaparib	OCI-C5x (clear cell)	2
32.1	active	CLDN17	Rucaparib	OCI-C5x (clear cell)	3
58.2	active	CLDN17	Rucaparib	OCI-P5x (serous)	1
68.5	active	CLDN17	Rucaparib	OCI-P5x (serous)	2
59.6	active	CLDN17	Rucaparib	OCI-P5x (serous)	3
34.3	active	CLDN17	Vehicle	OCI-C5x (clear cell)	1
35.7	active	CLDN17	Vehicle	OCI-C5x (clear cell)	2
34	active	CLDN17	Vehicle	OCI-C5x (clear cell)	3
62.3	active	CLDN17	Vehicle	OCI-P5x (serous)	1
69.3	active	CLDN17	Vehicle	OCI-P5x (serous)	2
66.4	active	CLDN17	Vehicle	OCI-P5x (serous)	3
57.9	active	MAST1	Rucaparib	OCI-C5x (clear cell)	1
46.9	active	MAST1	Rucaparib	OCI-C5x (clear cell)	2
45.6	active	MAST1	Rucaparib	OCI-C5x (clear cell)	3
104	inactive	MAST1	Rucaparib	OCI-P5x (serous)	1
99.1	inactive	MAST1	Rucaparib	OCI-P5x (serous)	2
88.2	inactive	MAST1	Rucaparib	OCI-P5x (serous)	3
49.1	active	MAST1	Vehicle	OCI-C5x (clear cell)	1
44.1	active	MAST1	Vehicle	OCI-C5x (clear cell)	2
38.4	active	MAST1	Vehicle	OCI-C5x (clear cell)	3
83.1	inactive	MAST1	Vehicle	OCI-P5x (serous)	1
68.8	active	MAST1	Vehicle	OCI-P5x (serous)	2
74.4	active	MAST1	Vehicle	OCI-P5x (serous)	3

Laid out differently: entries from further up.
CBX8, rucaparib or vehicle Vehicle, cell line OCI-P5x (serous), technical replicate 3
- viability, normalised (%): 74.3
- activity call: active

CLDN17, rucaparib or vehicle Rucaparib, cell line OCI-C5x (clear cell), technical replicate 1
- viability, normalised (%): 39.4
- activity call: active

CLDN17, rucaparib or vehicle Rucaparib, cell line OCI-C5x (clear cell), technical replicate 2
- viability, normalised (%): 46.5
- activity call: active

CLDN17, rucaparib or vehicle Rucaparib, cell line OCI-C5x (clear cell), technical replicate 3
- viability, normalised (%): 32.1
- activity call: active

CLDN17, rucaparib or vehicle Rucaparib, cell line OCI-P5x (serous), technical replicate 1
- viability, normalised (%): 58.2
- activity call: active

CLDN17, rucaparib or vehicle Rucaparib, cell line OCI-P5x (serous), technical replicate 2
- viability, normalised (%): 68.5
- activity call: active

CLDN17, rucaparib or vehicle Rucaparib, cell line OCI-P5x (serous), technical replicate 3
- viability, normalised (%): 59.6
- activity call: active

More records follow:
viability, normalised (%)	activity call	Gene	rucaparib or vehicle	cell line	technical replicate
69.2	active	BCL3	Rucaparib	OCI-C5x (clear cell)	1
58.6	active	BCL3	Rucaparib	OCI-C5x (clear cell)	2
69.6	active	BCL3	Rucaparib	OCI-C5x (clear cell)	3
77.6	active	BCL3	Rucaparib	OCI-P5x (serous)	1
83.1	inactive	BCL3	Rucaparib	OCI-P5x (serous)	2
65.4	active	BCL3	Rucaparib	OCI-P5x (serous)	3
57	active	BCL3	Vehicle	OCI-C5x (clear cell)	1
46.8	active	BCL3	Vehicle	OCI-C5x (clear cell)	2
50.6	active	BCL3	Vehicle	OCI-C5x (clear cell)	3
76.3	active	BCL3	Vehicle	OCI-P5x (serous)	1
75.4	active	BCL3	Vehicle	OCI-P5x (serous)	2
90.8	inactive	BCL3	Vehicle	OCI-P5x (serous)	3
48.3	active	ATXN7L3	Rucaparib	OCI-C5x (clear cell)	1
44.2	active	ATXN7L3	Rucaparib	OCI-C5x (clear cell)	2
38.8	active	ATXN7L3	Rucaparib	OCI-C5x (clear cell)	3
58.7	active	ATXN7L3	Rucaparib	OCI-P5x (serous)	1
72.3	active	ATXN7L3	Rucaparib	OCI-P5x (serous)	2
64.1	active	ATXN7L3	Rucaparib	OCI-P5x (serous)	3
22.9	active	ATXN7L3	Vehicle	OCI-C5x (clear cell)	1
40.1	active	ATXN7L3	Vehicle	OCI-C5x (clear cell)	2
31.3	active	ATXN7L3	Vehicle	OCI-C5x (clear cell)	3
57.4	active	ATXN7L3	Vehicle	OCI-P5x (serous)	1
60.5	active	ATXN7L3	Vehicle	OCI-P5x (serous)	2
73.9	active	ATXN7L3	Vehicle	OCI-P5x (serous)	3
